PubChem BioAssay AID504467 (National Center for Advancing Translational Sciences (NCATS), 2011)
About 7,700 (2.3%) of roughly 330,000 compounds were called active. The inconclusive results got no clear call from the source; some entries with a clear call stand among them for comparison. Calls come from the whole dose curve; as a rule, active = well fitted inhibition curve with a large enough effect; inconclusive = small, poorly fitted or top-dose-only effect, or effect the other way; inactive = flat fitted curve, though single readings scatter. Where the call is inconclusive, the potency comes from a doubtful curve fit.

Experiment: qHTS screen for small molecules that inhibit ELG1-dependent DNA repair in human embryonic kidney (HEK293T) cells expressing luciferase-tagged ELG1; note: nearly all actives have a fitted effect of over 55% in size
Conditions: HEK293T ELG1-luciferase reporter, luminescence, 16 h, DNA damage induced by 5-fluorouridine; series mostly up to 46.1 µM
Outline: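 In this reporter screen, reduction of luminescence relative to DMSO vehicle indicated activity. Compounds and 5-fluorouridine were added together to 2,000 cells per well, incubated for 16 hr at 37 °C, then developed with ONE-Glo.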
Potency is the fitted concentration of half-maximal effect.

Structure (SMILES) | Potency
COc1cc2c(cc1OC)C(C)N(Cc1ccc3c(c1)OCO3)CC2 (stereo not given) | inactive
O=c1oc2ccccc2c(O)c1C=Nc1cccnc1 | inactive
Cc1ccc(C)c(OCc2cc(C(=O)N3CC[C@@H]4CCCC[C@H]4C3)no2)c1 | inconclusive: 23.1 µM [activator, partial curve]
Nn1c(-c2cccs2)nc2sc3c(c2c1=O)CCCC3 | inconclusive: 2.91 µM [activator, partial curve]
COc1ccc(/C=C2\CCC(C3CCCC3)C2=O)cc1OC (stereo not given) | inconclusive: 23.1 µM [activator, partial curve]
CC(C)c1ccccc1NC(=S)NC1CCN(Cc2ccccc2)CC1 | inactive
COc1cccc(CN(CC(=O)NC2CCCC2)C(=O)Cn2nnc(-c3cccs3)n2)c1 | inactive
Cc1c(CCC(=O)O)c(=O)n2c([nH]c3ccccc32)c1C#N | inactive
O=C(Nc1ccc(C(=O)NCCCN2CCN(c3ccccc3)CC2)cc1)C1=CSCCO1 | inactive
COc1ccc(CCNC(=O)CCCCCN2C(=O)[C@@H]3Cc4ccccc4CN3C2=O)cc1OC | inconclusive: 23.1 µM [inhibitor, partial curve, poor fit]
Cc1ccc(N(CC(=O)NC(C)c2ccccc2)S(=O)(=O)c2c(C)n[nH]c2C)cc1 (stereo not given) | inactive
O=C(Nc1cccc([N+](=O)[O-])c1)N1CCc2ccccc2C1 | inconclusive: 18.3 µM [activator, single point]
CCc1ccc(C2=NN(CCC(=O)NCC3CCCO3)C(=O)CC2)cc1 (stereo not given) | inconclusive: 23.1 µM [activator, partial curve, poor fit]
CCc1ccc([C@@H]2CC=C(C(=O)O)[C@H](c3ccc(Cl)cc3)N2S(=O)(=O)c2ccc(C)cc2)cc1 | inactive
O=C(CCNS(=O)(=O)c1ccc2c(c1)CCC(=O)N2)Nc1ccc(F)c(F)c1 | inconclusive: 29.1 µM [activator, single point]
Cc1ncc(CN2CCCC(C(=O)Nc3ccc(-c4cscn4)cc3)C2)cn1 (stereo not given) | inconclusive: 0.58 µM [inhibitor, single point]
CCc1c(C(=O)N/N=C/c2cn[nH]c2-c2ccc(F)cc2)csc1C | inconclusive: 16.4 µM [inhibitor, single point]
O=c1[nH]c(CSc2ncnc3sc(-c4ccccc4)cc23)nc2ccccc12 | inactive
COc1ccc(CN2C(=O)CN=C2Nc2cc(C)ccc2C)cc1 | inconclusive: 16.4 µM [activator, partial curve, poor fit]
COc1cccc(C(=O)Nc2ccc(Oc3cccc(C(F)(F)F)c3)nc2)c1 | inconclusive: 23.1 µM [inhibitor, single point]

Sorted by molar mass (largest number first): part of the list above.
Structure (SMILES) | Potency
O=C(Nc1ccc(C(=O)NCCCN2CCN(c3ccccc3)CC2)cc1)C1=CSCCO1 | inactive
Cc1ccc(N(CC(=O)NC(C)c2ccccc2)S(=O)(=O)c2c(C)n[nH]c2C)cc1 (stereo not given) | inactive
COc1cccc(C(=O)Nc2ccc(Oc3cccc(C(F)(F)F)c3)nc2)c1 | inconclusive: 23.1 µM [inhibitor, single point]
